Values are relative to the signal before dosing, not to a vehicle control; the signal also falls without drug.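 Fibroblast labels name human fibroblasts: mostly primary ones from tissues such as uterus (C12385, HUF), lung (H6013), bone (Hs27A), adrenal (HADF) and skin (WS1), plus mammary HMF and breast cancer-associated Hs343T. The cancer cells are basal-like or mesenchymal-like triple-negative breast cancer lines. The paper calls a changed response a hit when it shifts by more than 3x the replicate standard deviation. The tissue of the other fibroblasts is not given here.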
Tested on: Hs578T
Experiment: relative JC-1 red fluorescence (viability) vs pre-drug, coculture with fibroblast (fraction); higher = more viable cancer cells
Experimental: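 JC-1 labelled TNBC cells cocultured 1:1 (1,500 cells each) with CellTrace Violet stained primary or stromal fibroblasts in 384-well plates in FluoroBrite medium, treated with one of 42 anticancer drugs at 0.1, 1, 10 or 100 uM. JC-1 red fluorescence (mitochondrial integrity in cancer cells only) was read by plate reader every 8 h for 72 h. Values are normalised to each well's pre-drug value. The stock of one drug was tenfold lower, so its dose labels may be too high.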

CCc1c2c(nc3ccc(OC(=O)N4CCC(N5CCCCC5)CC4)cc13)-c1cc3c(c(=O)n1C2)COC(=O)[C@]3(O)CC [Irinotecan]
relative JC-1 red fluorescence
Details | 8 h | 16 h | 24 h | 32 h | 40 h | 48 h | 56 h | 64 h | 72 h
0.1 µM | 0.822 | 0.7677 | 0.754 | 0.733 | 0.6844 | 0.657 | 0.637 | 0.597 | 0.586
1 µM | 0.877 | 0.782 | 0.747 | 0.703 | 0.644 | 0.6 | 0.588 | 0.546 | 0.529

relative JC-1 red fluorescence
Details | 8 h | 16 h | 24 h | 32 h | 40 h | 48 h | 56 h | 64 h | 72 h
0.1 µM, coculture fibroblast: C12385 | 0.809 | 0.711 | 0.7217 | 0.623 | 0.567 | 0.543 | 0.5172 | 0.5118 | 0.5166
0.1 µM, coculture fibroblast: H6013 | 0.843 | 0.822 | 0.807 | 0.798 | 0.778 | 0.783 | 0.766 | 0.773 | 0.748
0.1 µM, coculture fibroblast: H6019 | 0.764 | 0.6891 | 0.658 | 0.557 | 0.526 | 0.501 | 0.47 | 0.449 | 0.424
0.1 µM, coculture fibroblast: H6076 | 0.8406 | 0.791 | 0.801 | 0.81 | 0.794 | 0.822 | 0.835 | 0.847 | 0.858
0.1 µM, coculture fibroblast: H6231 | 0.885 | 0.7881 | 0.744 | 0.718 | 0.662 | 0.636 | 0.6 | 0.581 | 0.563
0.1 µM, coculture fibroblast: HADF | 0.8811 | 0.78 | 0.721 | 0.669 | 0.626 | 0.598 | 0.567 | 0.564 | 0.539
0.1 µM, coculture fibroblast: HCFa | 0.848 | 0.812 | 0.765 | 0.709 | 0.664 | 0.641 | 0.6 | 0.587 | 0.547
0.1 µM, coculture fibroblast: HCPF | 0.891 | 0.8127 | 0.7754 | 0.7521 | 0.705 | 0.682 | 0.666 | 0.643 | 0.627
0.1 µM, coculture fibroblast: HHSteC | 0.886 | 0.858 | 0.834 | 0.807 | 0.766 | 0.743 | 0.719 | 0.708 | 0.67
0.1 µM, coculture fibroblast: HMF | 0.835 | 0.763 | 0.753 | 0.757 | 0.713 | 0.699 | 0.689 | 0.672 | 0.672
0.1 µM, coculture fibroblast: HPFa | 0.9098 | 0.814 | 0.748 | 0.691 | 0.65 | 0.611 | 0.563 | 0.535 | 0.488
0.1 µM, coculture fibroblast: HUF | 0.883 | 0.76 | 0.765 | 0.655 | 0.602 | 0.571 | 0.548 | 0.545 | 0.539
0.1 µM, coculture fibroblast: Hs27A | 0.886 | 0.8 | 0.759 | 0.693 | 0.623 | 0.59 | 0.547 | 0.527 | 0.471
0.1 µM, coculture fibroblast: Hs343T | 0.827 | 0.73 | 0.7092 | 0.706 | 0.651 | 0.632 | 0.61 | 0.605 | 0.62
0.1 µM, coculture fibroblast: WS1 | 0.784 | 0.693 | 0.637 | 0.54 | 0.485 | 0.465 | 0.436 | 0.433 | 0.425
1 µM, coculture fibroblast: C12385 | 0.792 | 0.7065 | 0.636 | 0.554 | 0.4891 | 0.453 | 0.426 | 0.412 | 0.404
1 µM, coculture fibroblast: H6013 | 0.823 | 0.76 | 0.708 | 0.67 | 0.638 | 0.626 | 0.605 | 0.597 | 0.573
1 µM, coculture fibroblast: H6019 | 0.748 | 0.6655 | 0.674 | 0.581 | 0.551 | 0.529 | 0.504 | 0.49 | 0.47
1 µM, coculture fibroblast: H6076 | 0.8914 | 0.8141 | 0.769 | 0.749 | 0.709 | 0.706 | 0.71 | 0.704 | 0.703
1 µM, coculture fibroblast: H6231 | 0.88 | 0.77543 | 0.712 | 0.655 | 0.587 | 0.551 | 0.516 | 0.494 | 0.481
1 µM, coculture fibroblast: HADF | 0.835 | 0.79 | 0.737 | 0.683 | 0.646 | 0.624 | 0.586 | 0.58 | 0.561
1 µM, coculture fibroblast: HCFa | 0.835 | 0.778 | 0.715 | 0.646 | 0.587 | 0.563 | 0.53 | 0.515 | 0.48
1 µM, coculture fibroblast: HCPF | 0.907 | 0.83 | 0.794 | 0.753 | 0.696 | 0.666 | 0.662 | 0.626 | 0.621
1 µM, coculture fibroblast: HHSteC | 0.845 | 0.755 | 0.694 | 0.634 | 0.587 | 0.555 | 0.531 | 0.512 | 0.4836
1 µM, coculture fibroblast: HMF | 0.84626 | 0.779 | 0.734 | 0.7 | 0.647 | 0.612 | 0.597 | 0.568 | 0.561
1 µM, coculture fibroblast: HPFa | 0.89 | 0.824 | 0.781 | 0.737 | 0.718 | 0.695 | 0.655 | 0.637 | 0.594
1 µM, coculture fibroblast: HUF | 0.89 | 0.76 | 0.757 | 0.641 | 0.585 | 0.548 | 0.522 | 0.515 | 0.511
1 µM, coculture fibroblast: Hs27A | 0.879 | 0.852 | 0.8049 | 0.768 | 0.717 | 0.698 | 0.657 | 0.663 | 0.619
1 µM, coculture fibroblast: Hs343T | 0.86 | 0.764 | 0.726 | 0.694 | 0.635 | 0.6038 | 0.582 | 0.563 | 0.566
1 µM, coculture fibroblast: WS1 | 0.799 | 0.7128 | 0.68 | 0.5844 | 0.539 | 0.525 | 0.511 | 0.519 | 0.517
